Assay results published in PMC8237258 (Journal of Medicinal Chemistry, 2021).
Bridges are numbered along the chain shown (N, C = ends).

Assays:
[1] = general procedure: Fmoc solid-phase peptide synthesis; Rink amide resin (0.74 mmol/g) or freshly prepared 2-chlorotrityl hydrazine resin; HCTU/DIEA; details: whole synthesis, scale of the general procedure 0.1 mmol
[2] = Fmoc solid-phase peptide synthesis; 2-chlorotrityl hydrazine resin; HCTU/DIEA; details: whole synthesis, overall, scale of the general procedure 0.1 mmol

cyclo(ACTGCYCCEYCCNP) (disulfide 2-8, 5-11, 7-12; SMILES C[C@@H]1NC(=O)[C@@H]2CCCN2C(=O)[C@H](CC(N)=O)NC(=O)[C@@H]2CSSC[C@@H]3NC(=O)[C@H](Cc4ccc(O)cc4)NC(=O)[C@@H]4CSSC[C@H](NC(=O)[C@H](Cc5ccc(O)cc5)NC(=O)[C@H](CCC(=O)O)NC(=O)[C@H](CSSC[C@H](NC1=O)C(=O)N[C@@H]([C@@H](C)O)C(=O)NCC(=O)N4)NC3=O)C(=O)N2)
final purity (method not given) [1]: >95% purity | isolated yield [2]: 4%
